Results deposited as PubChem BioAssay AID1259308 (NCATS, 2017)
Aim: 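Candidate targets for better recombinant protein yield in mammalian cells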 (primary screen). Cells: human HEK293 embryonic kidney cells stably expressing firefly luciferase (HEK-CMV-Luc2-Hygro). Reagents: single siRNA against human genes, 0.8 pmol siRNA per well. Time to read-out: 72 h. Detection: 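Luciferase light (ONE-Glo) measured on one replicate plate set and viability (CellTiter-Glo) on the other, scaled to a negative control siRNA, with robust z-scores and luciferase per cell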. Scale: total luciferase, z-score and total luciferase, % of control: higher = more reporter protein produced. Active means: 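An siRNA counts as active if its total luciferase robust z-score exceeds 3; genes with two or more such siRNAs out of three were retested with fresh siRNAs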. Calls: active = raised luciferase; inactive = no rise.
The whole screen tested about 59,000 reagents; this is a part drawn at random. Over the whole deposit, about 1,510 (2.6%) got an active call. 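Calls use total luciferase alone and ignore viability, so some active siRNAs may act by altering cell number.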 A number with no mark means an inactive call. Reagents against one gene are numbered here. Not all columns of the deposit are shown.

UQCRC2 #1 — total luciferase, z-score = 0.694; total luciferase, % of control = 95.7
UQCRC2 #2 — total luciferase, z-score = 1.88; total luciferase, % of control = 119
UQCRC2 #3 — total luciferase, z-score = -0.335; total luciferase, % of control = 75.2
TXNDC11 #1 — total luciferase, z-score = 0.695; total luciferase, % of control = 95.7
TXNDC11 #2 — total luciferase, z-score = -0.449; total luciferase, % of control = 73
TXNDC11 #3 — total luciferase, z-score = -0.313; total luciferase, % of control = 75.7
CCL11 #1 — total luciferase, z-score = -0.096; total luciferase, % of control = 80
CCL11 #2 — total luciferase, z-score = -0.767; total luciferase, % of control = 66.6
CCL11 #3 — total luciferase, z-score = -0.665; total luciferase, % of control = 68.7
ZNF526 #1 — total luciferase, z-score = 2.17; total luciferase, % of control = 125
ZNF526 #2 — total luciferase, z-score = 0.321; total luciferase, % of control = 88.3
ZNF526 #3 — total luciferase, z-score = 0.332; total luciferase, % of control = 88.5

Only “total luciferase, % of control” (4 entries from above):
CCL11 #3	68.7
ZNF526 #1	125
ZNF526 #2	88.3
ZNF526 #3	88.5

The listing continues.
RPL22L1 #1 — total luciferase, z-score = 0.503; total luciferase, % of control = 91.9
RPL22L1 #2 — total luciferase, z-score = 1.24; total luciferase, % of control = 107
RPL22L1 #3 — total luciferase, z-score = -0.771; total luciferase, % of control = 66.6
RPS16P10 #1 — total luciferase, z-score = -0.234; total luciferase, % of control = 77.2
RPS16P10 #2 — total luciferase, z-score = -1.05; total luciferase, % of control = 60.9
RPS16P10 #3 — total luciferase, z-score = -0.979; total luciferase, % of control = 62.4
CAPRIN1 #1 — total luciferase, z-score = 0.314; total luciferase, % of control = 88.1
CAPRIN1 #2 — total luciferase, z-score = -0.444; total luciferase, % of control = 73
CAPRIN1 #3 — total luciferase, z-score = 2.78; total luciferase, % of control = 137
FAM201A #1 — total luciferase, z-score = -0.165; total luciferase, % of control = 78.6
FAM201A #2 — total luciferase, z-score = 0.112; total luciferase, % of control = 84.1
FAM201A #3 — total luciferase, z-score = 2.67; total luciferase, % of control = 135
WNK1 #1 — total luciferase, z-score = -0.778; total luciferase, % of control = 66.4
WNK1 #2 — total luciferase, z-score = -1.45; total luciferase, % of control = 53.1
WNK1 #3 — total luciferase, z-score = 1.13; total luciferase, % of control = 104
WNK1 #4 — total luciferase, z-score = -0.824; total luciferase, % of control = 65.5
WNK1 #5 — total luciferase, z-score = -0.486; total luciferase, % of control = 72.2
WNK1 #6 — total luciferase, z-score = 0.352; total luciferase, % of control = 88.9
TMEM53 #1 — total luciferase, z-score = 0.205; total luciferase, % of control = 86
TMEM53 #2 — total luciferase, z-score = 1.13; total luciferase, % of control = 104
TMEM53 #3 — total luciferase, z-score = 0.0129; total luciferase, % of control = 82.1
